Source: patent US6407233B1, “Halogen pyrimidines and its use thereof as parasite abatement means” (Bayer Aktiengesellschaft, priority 1996, dated 2002)
Some of these results come from one statement about several compounds together.

Legend:
Type in all cases: in vivo
Plasmopara viticola = assay: Plasmopara test (vines)/protective; conditions: protective, active compound concentration 100 ppm, evaluated 6 days after inoculation
Sphaerotheca fuliginea = assay: Sphaerotheca test (cucumber)/protective; conditions: protective, active compound concentration 100 ppm, evaluated 10 days after inoculation
Venturia inaequalis = assay: Venturia test (apple)/protective; conditions: protective, active compound concentration 10 ppm, evaluated 12 days after inoculation

Measured: efficacy

CO/N=C(/C1=NOCCO1)c1ccccc1Oc1ncnc(Oc2ccccc2Cl)c1F [Example 1, 3-{1-[2-(4-<2-chlorophenoxy>-5-fluoropyrimid-6-yloxy)-phenyl]-1-(methoximino)-methyl}-5,6-dihydro-1,4,2-dioxazine]
up to 100%: all assays above

CO/C=C(/C1=NOCCO1)c1ccccc1Oc1ncnc(Oc2ccccc2)c1F [Example 2, 3-{1-[2-(4-phenoxy-5-fluoropyrimid-6-yloxy)-phenyl]-2-methoxyethen-1-yl}-5,6-dihydro-1,4,2-dioxazine]
up to 100%: all assays above

CO/N=C(/C1=NOCCO1)c1ccccc1Oc1ncnc(Oc2ccccc2)c1F [Example 3, 3-{1-[2-(4-phenoxy-5-fluoropyrimid-6-yloxy)-phenyl]-1-(methoximino)-methyl}-5,6-dihydro-1,4,2-dioxazine]
up to 100%: all assays above
